According to article PMC5838229:
These are yes or no findings as the source states them, for the method shown. In cells and extracts the contact can be indirect. Some binding calls cover weakened binding; strength is not graded here. For part of these data: Where a sequence is shown, tags or fusion partners need not be part of it.

Amino acid sequences for entries named in this document (tags omitted).
UniProt P11142: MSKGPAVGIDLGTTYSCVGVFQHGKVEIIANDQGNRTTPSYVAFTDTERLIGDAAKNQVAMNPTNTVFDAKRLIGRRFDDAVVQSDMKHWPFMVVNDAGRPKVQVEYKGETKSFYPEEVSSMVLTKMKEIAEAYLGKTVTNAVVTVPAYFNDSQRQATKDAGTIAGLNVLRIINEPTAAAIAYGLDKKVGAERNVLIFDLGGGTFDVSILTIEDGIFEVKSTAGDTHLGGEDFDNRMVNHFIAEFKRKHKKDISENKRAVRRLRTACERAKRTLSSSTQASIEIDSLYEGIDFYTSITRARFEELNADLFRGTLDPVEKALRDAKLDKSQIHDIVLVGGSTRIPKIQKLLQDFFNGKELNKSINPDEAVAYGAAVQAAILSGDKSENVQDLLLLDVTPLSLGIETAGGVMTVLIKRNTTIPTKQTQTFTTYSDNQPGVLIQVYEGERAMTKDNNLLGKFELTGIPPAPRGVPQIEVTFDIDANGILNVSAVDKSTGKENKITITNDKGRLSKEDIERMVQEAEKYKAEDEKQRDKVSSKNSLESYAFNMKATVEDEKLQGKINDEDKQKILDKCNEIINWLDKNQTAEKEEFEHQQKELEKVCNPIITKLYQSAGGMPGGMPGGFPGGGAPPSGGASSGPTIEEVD

Key:
[1] = target: T1, endogenous USP19 (human (endogenous in HEK293T)) (UniProt O94966); experiment: co-IP; endogenous proteins; cell extracts incubated with affinity-purified USP19 antibodies immobilized on protein A beads; USP19 null CRISPR cells as negative control; immunoblotting
T1 sequence: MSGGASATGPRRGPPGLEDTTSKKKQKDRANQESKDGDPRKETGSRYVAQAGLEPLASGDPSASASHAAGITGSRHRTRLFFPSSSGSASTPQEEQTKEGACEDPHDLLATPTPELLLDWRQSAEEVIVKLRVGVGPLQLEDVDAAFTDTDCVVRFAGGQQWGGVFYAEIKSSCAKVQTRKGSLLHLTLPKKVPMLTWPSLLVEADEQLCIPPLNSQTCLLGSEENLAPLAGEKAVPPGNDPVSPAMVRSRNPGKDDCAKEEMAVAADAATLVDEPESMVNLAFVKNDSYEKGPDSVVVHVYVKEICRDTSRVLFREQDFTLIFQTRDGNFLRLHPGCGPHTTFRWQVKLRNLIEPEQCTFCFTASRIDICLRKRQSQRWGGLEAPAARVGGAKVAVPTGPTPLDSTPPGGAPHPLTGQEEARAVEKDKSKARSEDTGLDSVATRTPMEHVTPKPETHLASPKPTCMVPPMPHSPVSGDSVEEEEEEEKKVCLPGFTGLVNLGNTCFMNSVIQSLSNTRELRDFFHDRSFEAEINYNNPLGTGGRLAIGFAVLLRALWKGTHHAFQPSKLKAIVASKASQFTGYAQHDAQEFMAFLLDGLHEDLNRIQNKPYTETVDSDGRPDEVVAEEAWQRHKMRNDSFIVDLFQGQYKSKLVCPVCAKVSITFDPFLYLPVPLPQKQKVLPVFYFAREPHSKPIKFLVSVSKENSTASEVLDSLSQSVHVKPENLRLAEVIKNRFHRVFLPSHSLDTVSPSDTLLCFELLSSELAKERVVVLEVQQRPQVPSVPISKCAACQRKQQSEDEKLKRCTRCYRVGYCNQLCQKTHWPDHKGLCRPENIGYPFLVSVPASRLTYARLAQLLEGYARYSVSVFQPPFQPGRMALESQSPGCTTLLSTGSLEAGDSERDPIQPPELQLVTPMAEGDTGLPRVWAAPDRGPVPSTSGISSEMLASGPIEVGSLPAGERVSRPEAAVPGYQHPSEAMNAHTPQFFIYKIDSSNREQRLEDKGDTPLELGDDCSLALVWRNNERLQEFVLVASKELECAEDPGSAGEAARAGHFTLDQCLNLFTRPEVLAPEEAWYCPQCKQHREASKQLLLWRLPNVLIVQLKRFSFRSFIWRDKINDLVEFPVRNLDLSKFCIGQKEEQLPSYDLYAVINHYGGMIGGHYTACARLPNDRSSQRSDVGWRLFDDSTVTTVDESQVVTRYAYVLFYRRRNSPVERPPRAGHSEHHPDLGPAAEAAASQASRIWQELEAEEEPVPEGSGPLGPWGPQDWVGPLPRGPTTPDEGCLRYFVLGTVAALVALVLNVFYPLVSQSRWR

[2] = target: T2, Flag-tagged USP19, wild type, full length (USP19 isoform 1) (UniProt O94966); experiment: co-IP; HEK293T cells transfected with Flag-tagged USP19 variants; lysis in 1% CHAPS, 30 mM Tris/HCl pH 7.4, 150 mM potassium acetate, 4 mM magnesium acetate, 1 mM DTT; Flag M2 beads; immunoblotting; empty vector as negative control
T2 sequence: T1 sequence

[3] = target: T3, USP19 CT ∆UI (490-680 and 1058-1318) (UniProt O94966); experiment: as above
T3 sequence: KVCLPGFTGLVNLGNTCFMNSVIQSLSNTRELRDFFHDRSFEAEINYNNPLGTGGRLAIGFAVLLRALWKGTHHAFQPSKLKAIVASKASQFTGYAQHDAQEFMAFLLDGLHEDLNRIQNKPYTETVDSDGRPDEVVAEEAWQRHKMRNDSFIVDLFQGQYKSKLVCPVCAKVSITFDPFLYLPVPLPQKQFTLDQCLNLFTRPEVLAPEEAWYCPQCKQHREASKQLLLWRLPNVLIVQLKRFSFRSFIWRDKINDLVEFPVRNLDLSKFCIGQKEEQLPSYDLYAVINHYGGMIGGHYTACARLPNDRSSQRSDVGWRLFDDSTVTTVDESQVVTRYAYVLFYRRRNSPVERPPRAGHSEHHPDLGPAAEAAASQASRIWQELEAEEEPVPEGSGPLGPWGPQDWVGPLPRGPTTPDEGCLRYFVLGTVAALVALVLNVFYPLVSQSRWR

Measured: binding

endogenous HSC70 (from UniProt P11142 1-646)
binds: all assays above
